In patent publication US20260078144A1 (WINKEY TECHNOLOGY USA INC, priority 2023, published 2026):

Experiment: general procedure: Fmoc solid-phase peptide synthesis; Amide Resin (1.72 mmol/g) with Fmoc-Linker; Wang Resin; DIC, HOBt
Details: whole synthesis, scale of the general procedure 10 g resin

Substance: Ac-YGWKKQ-NH2
- final purity (method not given): 99.739%

Substance: Ac-KKWVTH-NH2
- final purity (method not given): 99.353%

Substance: Ac-Lys-Arg-Tyr-Gly-Trp-NH2 (KRYGW; printed: Lys-Arg-Tyr-Gly-Trp-)
- final purity (method not given): 99.876%

Substance: Ac-KPLWHV-OH
- final purity (method not given): 98.944%

Substance: Ac-KPLWHV-NH2
- final purity (method not given): 98.844%
